From PubChem BioAssay AID1671190 (National Center for Advancing Translational Sciences (NCATS), 2021)
The whole screen tested about 580,000 compounds, of which about 6,100 (1.1%) were called active. The inconclusive results got no clear call from the source; some entries with a clear call stand among them for comparison. Calls follow the shape of the dose curve; as a rule, active = well fitted inhibition curve with a large enough effect; inconclusive = small, poorly fitted or top-dose-only effect, or another doubt; inactive = no such curve, though single readings can be large or run the other way. Potencies of inconclusive entries are doubtful fits and often do not repeat.
% is scaled to controls: 0 for no effect and ±100 for the full control effect; potency is read from the fitted curve at half-maximal effect.

The chains behind the UniProt entries cited, without tags or fusion partners. Where a name states a change or a piece, a line headed by the entry shows the natural chain unless it says otherwise.
UniProt P18054: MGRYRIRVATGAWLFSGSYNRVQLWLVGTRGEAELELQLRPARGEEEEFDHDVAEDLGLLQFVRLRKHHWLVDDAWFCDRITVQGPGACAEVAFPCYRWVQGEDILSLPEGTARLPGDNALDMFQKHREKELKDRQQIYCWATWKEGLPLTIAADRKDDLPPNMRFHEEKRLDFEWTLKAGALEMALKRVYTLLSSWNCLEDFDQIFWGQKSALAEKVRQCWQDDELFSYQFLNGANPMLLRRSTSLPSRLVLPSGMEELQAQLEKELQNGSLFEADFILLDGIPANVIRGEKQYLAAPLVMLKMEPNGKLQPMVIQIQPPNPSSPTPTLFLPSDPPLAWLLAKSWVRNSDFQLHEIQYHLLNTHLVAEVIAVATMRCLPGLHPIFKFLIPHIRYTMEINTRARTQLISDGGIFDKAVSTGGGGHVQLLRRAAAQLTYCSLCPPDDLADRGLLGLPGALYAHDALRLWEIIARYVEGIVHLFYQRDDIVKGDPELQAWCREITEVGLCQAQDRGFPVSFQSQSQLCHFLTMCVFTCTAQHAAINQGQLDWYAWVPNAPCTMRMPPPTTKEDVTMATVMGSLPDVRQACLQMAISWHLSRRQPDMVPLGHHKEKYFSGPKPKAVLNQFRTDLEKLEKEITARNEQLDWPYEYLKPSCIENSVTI

These compounds were tested against Polyunsaturated fatty acid lipoxygenase ALOX12 (Homo sapiens) (UniProt P18054) (assay: Primary qHTS assay for inhibitors of human arachidonate 12S-lipoxygenase (ALOX12): Round 2). Conditions: purified 12hLO, xylenol orange hydroperoxide absorbance; activity change, negative = inhibition: at 108 µM (top of the series) unless noted.
Summary of the method: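 Hydroperoxide product was detected by ferrous iron/xylenol orange as the 573 to 405 nm absorbance ratio. Arachidonic acid at 40 uM (final) was turned over for 30 min at room temperature by 150 nM human 12hLO, pH 7.0 Hepes buffer, after 15 min compound preincubation.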
With CCOC(=O)c1c(C)[nH]c(C)c1S(=O)(=O)N(C)CC(=O)N1CCN(c2ccc(Cl)cc2)CC1 the Potency was inconclusive: 126 µM [inhibitor, partial curve, poor fit].
For O=C(O)c1ccc(-c2ncccn2)cc1, the Potency was inconclusive: 56.2 µM [inhibitor, full curve].
For COc1ccc(CNCc2ccccc2C(F)(F)F)cc1, the Potency was inconclusive: 0.224 µM [inhibitor, full curve, poor fit].
For O=C(CCCN1C(=O)c2ccccc2C1=O)Oc1ccc(Cl)cc1, the Potency was inconclusive: 141 µM [inhibitor, single point].
With CCOc1ccc(CN2CCc3nc(N4CCN(c5ncccn5)CC4)ncc3C2)cc1OC the Potency was inconclusive: 35.5 µM [inhibitor, partial curve, poor fit].
COCCN1Cc2cccc(C(=O)Nc3ccc(C)cc3)c2C1=O was tested, and the “activity change, negative = inhibition” value was inactive: 2.44%.
For COc1cc2c(Oc3ccc(-c4cnc(Nc5ccc(F)cc5)n(C)c4=O)cc3F)ccnc2cc1OCCCN1CCOCC1, the Potency was inconclusive: 3.06 µM [inhibitor, full curve, poor fit].
With CC(C)C[C@H]1CNC(=S)N1C[C@H]1CCCN1C[C@H](Cc1ccccc1)N1C[C@H](Cc2ccc(O)cc2)N(CC2CCCCC2)C1=S the Potency was inconclusive: 39.8 µM [inhibitor, partial curve, poor fit].
In the case of Cc1ccc(/C=N/n2c(C3CCCCC3)n[nH]c2=S)s1, the Potency is reported as inconclusive: 44.7 µM [inhibitor, partial curve, poor fit].
With Cc1ccc(/C=C(\NC(=O)c2ccc(C)cc2)c2nc(=S)[nH][nH]2)cc1 the Potency was active: 20 µM.
In the case of Cn1cnnc1CC1CCN(C(=O)c2cccs2)CC1, the “activity change, negative = inhibition” value is reported as inactive: 41.4%.
For CC1(C(=O)NS(=O)(=O)c2ccc(Cl)cc2)CCN1C(=O)CCc1ccc(Cl)cc1Cl (stereo not drawn), the Potency was inconclusive: 56.2 µM [inhibitor, partial curve, poor fit].
CN(CC(=O)Nc1ccc(Cl)cc1F)C1=NS(=O)(=O)c2ccccc21 was tested, and the Potency was inconclusive: 44.7 µM [inhibitor, partial curve, poor fit].
In the case of Cc1noc(C)c1NC(=O)Nc1ccc2c(c1)C(=O)N([C@H](C)CO)C[C@H](C)[C@@H](CN(C)S(=O)(=O)c1ccccc1)O2, the Potency is reported as inconclusive: 4.47 µM [inhibitor, full curve, poor fit].
With O=C1N=C(N2CCN(Cc3ccccc3)CC2)S/C1=C/c1cccs1 the Potency was inconclusive: 35.5 µM [inhibitor, single point].
CCCN(Cc1ccccc1)C(=S)Nc1ccc(F)cc1 was tested, and the Potency was inconclusive: 28.2 µM [inhibitor, single point].
With O=S(=O)(c1cccs1)N1CCCc2cccc(O)c21 the Potency was inconclusive: 0.562 µM [inhibitor, full curve, poor fit].
For Cc1cc(Nc2ccccc2)nc(N2CCN(C(=O)Nc3cccc(Cl)c3)CC2)n1, the Potency was inconclusive: 56.2 µM [inhibitor, partial curve, poor fit].
In the case of CCOC(=O)c1cc2c(=O)n3ccccc3nc2n(CCCOC)c1=NC(=O)c1ccncc1, the “activity change, negative = inhibition” value is reported as inactive: -24.4%.
For CC(C)CSc1nc2c(c(=O)[nH]c(=O)n2C)n1CCCc1ccccc1, the “activity change, negative = inhibition” value was inactive: -6.3%.
CC1CN(c2cccc(Cl)c2)C(=O)CN1C(=O)c1ccc2n[nH]nc2c1 (stereo not drawn) was tested, and the “activity change, negative = inhibition” value was inactive: 91.6%.
With COc1ccc(-n2c(=O)c3c4c(sc3n(Cc3ccc(C)cc3C)c2=O)CCC4)c(OC)c1 the activity change, negative = inhibition was inconclusive: -31.8% [inhibitor].
With CCOC(=O)C1=C(C)NC(=S)NC1c1ccc(OC(=O)c2ccco2)cc1 (stereo not drawn) the Potency was inconclusive: 56.2 µM [inhibitor, partial curve, poor fit].
With Cc1ccc(S(=O)(=O)Nc2ccc(NC(=O)Nc3cccc(C(F)(F)F)c3)cc2)cc1 the Potency was inconclusive: 50.1 µM [inhibitor, partial curve, poor fit].
With CCc1nc2ccccc2n2c(-c3ccccc3)c3c(=O)n(C)c(=O)n(C)c3c12 the Potency was inconclusive: 50.1 µM [inhibitor, single point].
O=C(/C=C/c1cn(CC(O)CN2CCCCC2)c2ccccc12)c1ccccc1 (stereo not drawn) was tested, and the Potency was inconclusive: 89.1 µM [inhibitor, partial curve, poor fit].
For Fc1ccc(N/N=C/c2ccc(N3CCOCC3)cc2)c(F)c1, the Potency was inconclusive: 50.1 µM [inhibitor, partial curve, poor fit].
Cc1ncc2c(c1CNC(=O)c1cc(C(C)C)n3ncnc3n1)CCNC2 was tested, and the Potency was inconclusive: 14.1 µM [inhibitor, full curve, poor fit].
COc1ccc(OC)c(CNC(=O)Cn2ncc3c([nH]c4ccc(C)cc43)c2=O)c1 was tested, and the Potency was inconclusive: 126 µM [inhibitor, partial curve, poor fit].
In the case of O=C(O)CCC(=O)NNC(=O)COc1cccc(Cl)c1, the Potency is reported as inconclusive: 2.82 µM [inhibitor, full curve, poor fit].
With CC(Nc1oc(/C=C/c2ccc(F)cc2)nc1C#N)c1ccccc1 (stereo not drawn) the “activity change, negative = inhibition” value was inactive: -3.12%.
Cc1nc2sc(C(=O)O)c(N)c2c2c1COC(C)(C)C2 was tested, and the Potency was inconclusive: 39.8 µM [inhibitor, single point].
CC(C)NC(=O)C[C@@H]1O[C@H](CNC(=O)Nc2ccccc2)[C@@H](O)[C@H]1O was tested, and the Potency was inconclusive: 39.8 µM [inhibitor, full curve, poor fit].
With CCOC(=O)N1CCC(NC(=O)Cn2ncc3ccccc32)CC1 the “activity change, negative = inhibition” value was inactive: -9.29%.
COc1ccc(C2CC(=O)N3CN(c4ccc(C)c(Cl)c4)CSC3=C2C#N)cc1 (stereo not drawn) was tested, and the Potency was active: 3.98 µM.
For Cc1sc2nc(CSc3ccc([N+](=O)[O-])c(C(F)(F)F)c3)[nH]c(=O)c2c1C, the Potency was inconclusive: 44.7 µM [inhibitor, full curve, poor fit].
In the case of CC1CCCC(C)N1S(=O)(=O)c1ccc(S(=O)(=O)NCCc2ccncc2)cc1 (stereo not drawn), the “activity change, negative = inhibition” value is reported as inactive: 26.5%.
In the case of CSc1ccccc1C(=O)Nc1ccc(C)c(F)c1, the Potency is reported as inconclusive: 50.1 µM [inhibitor, partial curve, poor fit].
With Cc1ccc(C2CC(c3ccco3)=NN2S(C)(=O)=O)cc1 (stereo not drawn) the Potency was inconclusive: 126 µM [inhibitor, partial curve, poor fit].
COc1cc(C(CC(=O)NCc2ccccc2)N2Cc3ccccc3C2=O)cc(OC)c1OC (stereo not drawn) was tested, and the Potency was inconclusive: 44.7 µM [inhibitor, partial curve, poor fit].
In the case of O=C(CCC(=O)Nc1ccccc1)NCCO, the “activity change, negative = inhibition” value is reported as inactive: 334%.
In the case of Cc1ccc(Cc2ccc(C(=O)NNC(N)=S)o2)cc1, the “activity change, negative = inhibition” value is reported as inactive: -9.25%.
For O=[N+]([O-])c1ccc(NS(=O)(=O)c2ccccc2)c(Cl)c1, the Potency was inconclusive: 100 µM [inhibitor, partial curve, poor fit].
With FC(F)(F)c1cccc(Cn2c3[n+](c4ccc(C(F)(F)F)cc42)CCCCC3)c1 the Potency was inconclusive: 50.1 µM [inhibitor, partial curve, poor fit].
With O=S1(=O)CC(N2CCN(Cc3ccccc3F)CC2)CN1Cc1cn(Cc2ccc(C(F)(F)F)cc2)nn1 (stereo not drawn) the Potency was active: 39.8 µM.
For COc1ccc(C2=NS(=O)(=O)N(C)C(C(=O)N3CCC(C)CC3)=C2)cc1, the “activity change, negative = inhibition” value was inactive: -6.02%.
For S=C(NCCc1ccccc1)Nc1ccc(Sc2ccc(Br)cc2)cc1, the Potency was active: 35.5 µM.
Cc1ccc(S(=O)(=O)Nc2cccn3nc(C4CCC4)nc23)cc1 was tested, and the Potency was inconclusive: 5.62 µM [inhibitor, partial curve].
CCN(CC)S(=O)(=O)c1ccc(C(=O)NCc2n[nH]c(=S)n2Cc2ccccc2)cc1 was tested, and the Potency was active: 25.1 µM.
CN(C)CCOc1ccc(C(=O)/C=C/c2ccc(C(=O)O)cc2)cc1 was tested, and the Potency was inconclusive: 89.1 µM [inhibitor, single point].
Cc1c(CN2CCN(c3ncc(Cc4ccccc4)cn3)CC2)c(=O)n(-c2ccccc2)n1C was tested, and the Potency was inconclusive: 35.5 µM [inhibitor, partial curve].
In the case of CCc1nc2c(sc3ncccc32)c(=O)n1CC(=O)Nc1ccc(C(C)C)cc1, the Potency is reported as inconclusive: 50.1 µM [inhibitor, partial curve, poor fit].
CCc1noc(-c2cn(C3CCN(C(=O)c4cc(Cl)ccc4OC)C3)nn2)n1 (stereo not drawn) was tested, and the Potency was inconclusive: 3.16 µM [inhibitor, full curve, poor fit].
COc1ccc(N2CCN(CC(O)COc3ccccc3[N+](=O)[O-])CC2)cc1 (stereo not drawn) was tested, and the Potency was inconclusive: 35.5 µM [inhibitor, partial curve].
For N#C/C(=C\c1c(N2CCCCCC2)nc2ccccn2c1=O)C(N)=O, the Potency was inconclusive: 31.6 µM [inhibitor, single point].
With Cn1cc(Br)c(C(=O)Nc2sc3c(c2C#N)CCC3)n1 the “activity change, negative = inhibition” value was inactive: 38.1%.
For N#Cc1ccccc1COC(=O)c1ccc(Cl)cc1F, the Potency was inconclusive: 0.355 µM [inhibitor, full curve, poor fit].
Cc1csc(NC(=O)c2ccc(Cl)cc2[N+](=O)[O-])n1 was tested, and the Potency was inconclusive: 89.1 µM [inhibitor, single point].
For C[C@H](O)[C@@H]1C(=O)N2CCc3c([nH]c4c(-c5ccc6c(c5)OCO6)cccc34)[C@@H]2C[C@@H]1N(C)C(=O)c1ccco1, the Potency was inconclusive: 50.1 µM [inhibitor, partial curve, poor fit].
CC(=O)c1cccc(NC(=O)CN2C(=O)NC3(CCC(C)CC3)C2=O)c1 (stereo not drawn) was tested, and the “activity change, negative = inhibition” value was inactive: -9.87%.
In the case of N#CC1=C(N)OC2=C(C(=O)CC(c3ccccc3)C2)C1c1cccnc1 (stereo not drawn), the “activity change, negative = inhibition” value is reported as inactive: -7.44%.
With CCCn1nc(C(=O)OCC#N)c2ccccc2c1=O the “activity change, negative = inhibition” value was inactive: -2.09%.
For Cc1cc(C(=O)N[C@H]2[C@H](O)[C@H](O)C[C@@H]2c2ccccc2)c(C(F)(F)F)o1, the Potency was inconclusive: 28.2 µM [inhibitor, partial curve, poor fit].
